The list shows a part of the results. Further columns of the screen follow, without active or inactive calls. The list favours compounds with an active or inconclusive main result. Potencies come from curve fits of mixed quality, noted in brackets.

This test can be described thus: Cell signaling CRE-BLA (Fsk stim). To be noted: CHO CRE-bla reporter (cAMP response element driving beta-lactamase), forskolin EC10, beta-lactamase ratio; measured here: 460 nm blue channel. In short, it runs like this: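 CHO CRE-bla cells, overnight plating in Opti-MEM with 0.5% dialyzed FBS; cpd titration + EC10 NKH 477, 3 h 37 °C; CCF4 2 h RT; ex 405/em 460 vs 530 ratio → %Activity, AC50.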
`CCOc1ccc(S(=O)(=O)N(C)c2ccc(OCC(=O)OCc3c(C)noc3C)cc2)cc1`: the AC50 was 25.1 µM [rising, single point].
Consider `CNCCCN1c2ccccc2CCc2ccccc21`, for which the AC50 is 15.8 µM [falling, partial curve].
On to `Cc1ccccc1Cn1c(=N)n(CC(O)c2ccco2)c2ccccc21` (centres undefined), for which the AC50 was 25.1 µM [rising, single point].
On to `Cc1sc2ncnc(SCC(=O)c3cccs3)c2c1C`, for which the AC50 is 2 µM [rising, single point].
For `COc1ccc(-c2nnc(SCc3nnc(-c4ccccc4)o3)n2-c2ccccc2)cc1` the value was 1 µM [rising, partial curve].
As to `CCN(CCNC(=O)C1CCCN(S(=O)(=O)CC)C1)c1ccccc1` (centres undefined), the AC50 is 0.00398 µM [falling, full curve].
On to `c1coc(CNc2nc3sc4c(c3c3ncnn23)CCCC4)c1`, for which the AC50 was 12.6 µM [rising, partial curve].
The same measure for `Cc1nc(SCC(C)C)[nH]c(=O)c1Cc1ccccc1`: 15.8 µM [rising, partial curve]; for `Cc1ccc(-c2csc3ncn(-n4c(C)ccc4C)c(=O)c23)o1`: 3.98 µM [rising, full curve, poor fit]; for `Cc1nc2cnc(Nc3ccccc3)nc2n(C)c1=O`: 12.6 µM [rising, partial curve].
With `N#Cc1cccc(-c2nc(NCc3cccs3)c3ccccc3n2)c1`, the AC50 is 3.98 µM [rising, full curve].
For `O=C(Nc1ccc(O)cc1C(=O)O)c1cccc(Br)c1` the value was 0.00398 µM [falling, full curve, poor fit]; for `COc1ccc(CCNC(=O)CCS(=O)(=O)c2ccc3c(c2)CCN3C(C)=O)cc1OC`, 0.00316 µM [falling, full curve, poor fit]; for `CCOc1ccccc1OCCCC(=O)NC1=NCCS1`, 5.01 µM [falling, partial curve].
For `COc1ccc2cc(C(c3nnnn3C(C)(C)C)N3CCc4ccccc4C3)c(=O)[nH]c2c1` (centres undefined) the value was 15.8 µM [rising, single point]; for `COc1ccccc1-n1c(SCC(=O)Nc2ccccc2F)nc2[nH]ncc2c1=O`, 1.58 µM [rising, partial curve]; for `CC(C)(C)c1ccc(-c2nnc3sc(-c4ccncc4)nn23)cc1`, 3.98 µM [falling, single point].
With `Cc1ccc(NC(=O)CSCC(N)=O)cc1C`, the AC50 is 25.1 µM [rising, single point].
In the case of `Cc1nnc2sc(-c3cc4ccccc4o3)nn12`, the AC50 was 2.51 µM [rising, single point].
`Cc1ccc2cc(C#N)c(N3CCCN(S(=O)(=O)c4ccccc4)CC3)nc2c1`: the AC50 was 6.31 µM [rising, partial curve].
Consider `COc1ccc(C2(C(=O)N3CCOCC3)CCOCC2)cc1OC`, for which the AC50 is 15.8 µM [rising, partial curve].
In the case of `Cn1c(=O)[nH]c(=O)c2c1nc(Br)n2Cc1ccccc1F`, the AC50 was 12.6 µM [falling, partial curve, poor fit].
For the molecule `COCc1cc(C)nc(SCC(=O)Nc2ccc3c(c2)OCO3)c1C#N`, the AC50 is 12.6 µM [rising, single point].
Take `Nn1c(SCC(=O)NC2CCCc3ccccc32)nnc1-c1cccs1` (centres undefined): the AC50 is 12.6 µM [rising, single point].
For `CN(C)/C=C1\C=C(c2ccccc2)OC1=O` the value was 0.00398 µM [falling, full curve, poor fit].
The same measure for `CCOC(=O)C1=C(c2ccccc2)NC(SC)=C(C#N)C1c1ccco1` (centres undefined): 10 µM [rising, single point]; for `CN(C(=O)c1ccc(Cl)cc1)C1=CCCCC1CCC#N` (centres undefined): 31.6 µM [falling, single point].
For `CC(C)(C)NC(=O)COC(=O)c1ccc(O)cc1`, the AC50 is 0.1 µM [falling, single point].
With `CCC(C)NC(=O)Cn1cnc2sc(C)cc2c1=O` (centres undefined), the AC50 was 0.398 µM [falling, partial curve].
As for `Cc1cc(C)nc(N2CCCC(C(=O)NCc3cccs3)C2)n1` (centres undefined), the AC50 is 25.1 µM [rising, single point].
Regarding `COC(=O)c1cc(COc2ccc3oc(C)c(C(=O)OC)c3c2)c(C)o1`, the AC50 is 3.16 µM [rising, full curve, poor fit].
With `Cc1cccc(C(=O)NCN2CCN(c3ccccc3C#N)CC2)c1`, the AC50 is 12.6 µM [falling, partial curve, poor fit].
As to `CCN(Cc1cc2cccc(C)c2[nH]c1=O)C(=O)c1ccccc1OC`, the AC50 was 12.6 µM [rising, single point].
In the case of `COc1cccc(Cn2c(=O)cnc3cnc(N(C)C)nc32)c1`, the AC50 was 10 µM [rising, partial curve].
For `Cc1nc2cnc(N3CCOCC3)nc2n(C[C@H]2CCCO2)c1=O` the value was 25.1 µM [rising, single point]; for `CCC(NC(=O)OC(C)(C)C)C(=O)Oc1ccc2c3c(c(=O)oc2c1)CCC3` (centres undefined), 15.8 µM [rising, single point].
For the molecule `CN(C)CCNC(=O)c1cc2c(=O)n(C)c3ccccc3c2n1C`, the AC50 is 6.31 µM [rising, partial curve].
Turning to `CCC(C)n1c(C)nc2c(c1=O)c1nc3ccccc3nc1n2-c1ccc2c(c1)OCCO2` (centres undefined), the AC50 is 25.1 µM [rising, single point].
In the case of `O=C(c1cnccn1)N(c1ccccc1)C1(C(=O)NC2CCCCC2)CCCCC1`, the AC50 was 15.8 µM [rising, partial curve].
`O=C(Nc1ccc(Cl)cc1)NC1CCS(=O)(=O)C1` (centres undefined): the concentration at half-maximal activity (AC50) was 0.501 µM [rising, partial curve].
The same measure for `Cc1ccc(C(CC(=O)O)Nc2nc(N3CCCCC3)nc(N3CCCCC3)n2)cc1` (centres undefined): 6.31 µM [rising, partial curve]; for `COc1ccc(NC(=O)C2C(=O)NC3(C)CC2c2ccccc2O3)cc1` (centres undefined): 0.316 µM [falling, partial curve, poor fit]; for `O=C(NC1CCCC1)c1sc(=S)n2c1[nH]c(=O)c1ccccc12`: 0.00794 µM [falling, full curve, poor fit].
Consider `Cc1cc(C)n2cc(CSc3nnc(-c4ccccc4)o3)nc2n1`, for which the AC50 is 12.6 µM [rising, partial curve].
Turning to `OCCNc1ncnc2ccc(Br)cc12`, the AC50 was 25.1 µM [falling, partial curve, poor fit].
On to `COc1ccccc1CNc1ncnc2ccc(-c3ccc(C(=O)N(C)C)cc3)cc12`, for which the AC50 was 7.94 µM [rising, partial curve].
Take `CC(=O)C1=C(O)C(=O)N(CCc2c[nH]c3ccccc23)C1c1ccco1` (centres undefined): the AC50 is 12.6 µM [falling, partial curve, poor fit].
With `CC(C)(O)C1=NOC(c2ccccc2)C1` (centres undefined), the AC50 was 1 µM [falling, partial curve].
The same measure for `CCCCCCN1C(=O)C(O)=C(C(C)=O)C1c1ccc(Cl)cc1` (centres undefined): 0.631 µM [rising, full curve]; for `CCOC(=O)c1c(-c2cccs2)csc1NC(=O)CN1CC(C)OC(C)C1` (centres undefined): 2.51 µM [rising, full curve]; for `COc1ccc(OC)c(C2CC(=O)c3c([nH]c(C(=O)OC(C)C)c3C)C2)c1` (centres undefined): 2.51 µM [rising, full curve].
Consider `CS(=O)(=O)Nc1cccc(-c2cncnc2-n2ccnc2)c1`, for which the AC50 is 0.158 µM [rising, partial curve].
Turning to `Cc1cc(C)c2c(=O)n(CC(=O)NCCCN3CCN(c4ccccc4F)CC3)sc2n1`, the AC50 was 25.1 µM [falling, single point].
Regarding `CCc1nnc(NC(=O)CCC(=O)N2CCN(CCOc3ccc(C)cc3)CC2)s1`, the AC50 was 12.6 µM [rising, partial curve].
Regarding `COCCCn1c(SCC(=O)Nc2ccc(C(C)=O)cc2)nc2ccccc2c1=O`, the AC50 was 10 µM [rising, partial curve].
Regarding `COc1cccc(Cn2c(=O)c(CCc3ccccc3)nc3cnc(N4CCOCC4)nc32)c1`, the AC50 is 3.16 µM [rising, partial curve].
Consider `NC(=O)c1sc2nc(N3CCCCC3)c3c(c2c1N)CCCC3`, for which the AC50 was 2.51 µM [rising, partial curve].
With `O/N=C(\COc1ccccc1O)c1ccccc1`, the AC50 was 0.501 µM [falling, partial curve].
Regarding `CS(=O)(=O)Nc1cccc(-c2ccc3ncnc(NCCN4CCOCC4)c3c2)c1`, the AC50 is 7.94 µM [rising, partial curve].
As for `O=C(OCC(=O)N1CCN(c2ccccc2)CC1)C1=COCCO1`, the AC50 is 5.01 µM [falling, single point].
Turning to `Nc1ccc2c3c(cccc13)C(=O)NC2=O`, the AC50 is 25.1 µM [rising, partial curve].
The same measure for `CCOn1c(=O)c(=O)n(OCc2ccccc2)c2ccccc21`: 0.251 µM [rising, partial curve]; for `COc1ccc(-c2nc3cnc(N4CCN(C)CC4)nc3n(-c3ccc(OC)cc3)c2=O)cc1`: 12.6 µM [rising, partial curve]; for `N#CCSc1nnc2sc3ccccc3n12`: 15.8 µM [rising, single point].
Turning to `COc1ccc(CNC(=O)C(c2cccs2)N(C(=O)c2csnn2)C2CC2)cc1` (centres undefined), the AC50 was 10 µM [falling, partial curve].
As for `O=C(O)CC(c1ccccc1)n1cccc1` (centres undefined), the AC50 is 5.01 µM [rising, single point].
Take `Cc1cc(C)c2c(N)c(C(=O)N3CCN(c4ncccn4)CC3)sc2n1`: the AC50 is 12.6 µM [rising, partial curve].
On to `Cc1ccc(C2Nc3ccccc3-c3nc4ccccc4n32)o1` (centres undefined), for which the AC50 is 20 µM [rising, single point].
For `CCC(C)Sc1nc(O)cc(=O)[nH]1` (centres undefined) the value was 0.00316 µM [falling, full curve, poor fit].

The values are drawn from PubChem BioAssay AID662 (National Center for Advancing Translational Sciences (NCATS), 2007).
